Test results reported in PMC11253665.
Results are given in words; binding and its absence hold for the method and conditions named. Some entries that bind do so weakly or less than the wild type. Each block holds one binder with its values, some of them ahead of it.

Molecular target: T1, Bqt3 (S. pombe) (UniProt O74510)
T1 sequence: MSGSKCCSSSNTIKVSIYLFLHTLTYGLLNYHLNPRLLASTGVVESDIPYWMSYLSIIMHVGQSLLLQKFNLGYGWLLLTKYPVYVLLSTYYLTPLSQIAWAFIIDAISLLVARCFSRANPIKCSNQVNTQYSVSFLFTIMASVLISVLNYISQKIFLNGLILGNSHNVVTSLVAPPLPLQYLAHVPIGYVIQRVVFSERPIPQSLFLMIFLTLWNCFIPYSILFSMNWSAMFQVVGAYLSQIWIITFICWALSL
Test: two-hybrid; Clontech … system; Bqt4 in pGADT7-AD and Bqt3 in pGBKT7-DB co-transfected into S. cerevisiae AH109; 1.0 x 10^6 cells spotted on SD -Leu/-Trp or -Ade/-His/-Leu/-Trp plates, 30 °C, 3 days

binding: binds
B1: wild-type Bqt4 (protein, UniProt O60158 1-432)
chain: MTENEKSRSLPAERNPLYKDDTLDHTPLIPKCRAQVIEFPDGPATFVRLKCTNPESKVPHFLMRMAKDSSISATSMFRSAFPKATQEEEDLEMRWIRDNLNPIEDKRVAGLWVPPADALALAKDYSMTPFINALLEASSTPSTYATPSRPTAQKSETSEGEPESSTSATTTSVARRTRQRLAEHLENSKKTILQHDNKEEDKEIHSEENETKDEIKSEKKEPEIKKQEGGSSTEKVGQPSSSDDKAKGSTSKDQPSEEEEKTSDIQDRKIKTPIKPSLLGKIRSSVNKGMTDVASQVNRGMTDVASQVNKGVNGVASQVNKGMNGVANQVNKGVTGVASQVRKPVGKLEKKFENLEKSIGDTLKSSIRSSPKSKKRSREDFEENEDYNAMVPVKRSRITKLESEVYYEKRKVRALGGIAIGLGVGAILPFLF

binding: binds
B2: Bqt4 ΔKSE mutant (Δ364–383 aa) (protein, UniProt O60158)
chain: MTENEKSRSLPAERNPLYKDDTLDHTPLIPKCRAQVIEFPDGPATFVRLKCTNPESKVPHFLMRMAKDSSISATSMFRSAFPKATQEEEDLEMRWIRDNLNPIEDKRVAGLWVPPADALALAKDYSMTPFINALLEASSTPSTYATPSRPTAQKSETSEGEPESSTSATTTSVARRTRQRLAEHLENSKKTILQHDNKEEDKEIHSEENETKDEIKSEKKEPEIKKQEGGSSTEKVGQPSSSDDKAKGSTSKDQPSEEEEKTSDIQDRKIKTPIKPSLLGKIRSSVNKGMTDVASQVNRGMTDVASQVNKGVNGVASQVNKGMNGVANQVNKGVTGVASQVRKPVGKLEKKFENLEKSIGDTLNEDYNAMVPVKRSRITKLESEVYYEKRKVRALGGIAIGLGVGAILPFLF
